The experiment can be described thus: qHTS Assay for Lipid Storage Modulators in Drosophila S3 Cells.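 As to cell number change: cells counted by Cell Tracker Red CMTPX staining in the red channel.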 The note with it: BODIPY lipid droplet fluorescence, 18-24 h; for cell number change: measured here: cell count max response, cells fed with added oleic acid. In outline:
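Drosophila S3 cells loaded with oleic acid (400 uM, as added) and compounds at several concentrations; lipid droplets imaged by 488-nm laser-scanning cytometry, 500–530 nm intensity and object ratio to cell channel. Percent activity normalized to 20 uM Triacsin C.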

[1] abbreviates: measured here: lipid fluorescence (Fed channel) AC50, cells fed with added oleic acid.
Setting [2] is: measured here: cell number channel AC50, cells fed with added oleic acid.

Molecules are shown by their SMILES. This is one part of the list. Further columns of the screen follow, without active or inactive calls. The list favours compounds with an active or inconclusive main result. Potencies come from curve fits of mixed quality, noted in brackets.

59 compounds from PubChem BioAssay AID2685 (National Center for Advancing Translational Sciences (NCATS), 2010) can be followed below.

Take `Cc1ccc(-c2nnc3n2N=C(c2ccccc2Br)CS3)cc1`: the cell number change is -2.27%. The concentration at half-maximal activity (AC50) under setting [1] was 1.46 µM [rising, full curve, poor fit].

Turning to `NC(=O)c1ccccc1NS(=O)(=O)c1ccc(S(=O)(=O)N2CCCC2)cc1`, the cell number change is -10.1%. Further, under setting [1], the half-maximal activity concentration (AC50) was 11.6 µM [falling, partial curve, poor fit].

With `Cc1cc(C)n(CCC(=O)Nc2ccc(-c3ccno3)cc2)n1`, the cell number change was -83.3%. Moreover, the AC50 under setting [2] was 29.1 µM [falling, single point].

In the case of `COc1ccc(CCNc2nc(C)nc3c2oc2ccccc23)cc1OC`, the cell number change was -42.4%. Moreover, under setting [2], the AC50 was 29.1 µM [falling, single point]. In addition, the AC50 under setting [1] is 29.1 µM [falling, single point].

In the case of `O=C(CNc1cc([N+](=O)[O-])ccc1NCCO)Nc1cccc(S(=O)(=O)N2CCCCC2)c1`, the cell number change was 24.7%. Further, the AC50 under setting [1] was 3.66 µM [rising, partial curve, poor fit].

On to `O=C(Cc1ccc(Cl)cc1)NC1CCCN(Cc2ccccc2F)C1` (centres undefined), for which the cell number change worked out at 4.68%.

For `CC(Sc1nc2ccccc2c(=O)n1CC1CCCO1)C(=O)NC(C)c1ccccc1` (centres undefined), the cell number change is 219%. For the same compound, under setting [2], the AC50 was 29.1 µM [rising, single point]. Moreover, the concentration at half-maximal activity (AC50) under setting [1] is 20.6 µM [rising, partial curve].

Take `O=C(Cc1ccccc1)N/N=C/c1cc(Br)cs1`: the cell number change turned out to be 30.2%. In addition, under setting [2], the AC50 was 29.1 µM [rising, single point].

Turning to `O=C(NC(=S)Nc1ccccc1)C1CCCCC1`, the cell number change was 21.1%. In addition, the AC50 under setting [2] is 0.231 µM [rising, full curve, poor fit].

As for `Cn1c(=O)c2cn3ncccc3c2n(C)c1=O`, the cell number change is -19.4%. Under setting [1], the AC50 is 0.58 µM [rising, partial curve].

For the compound `O=c1oc2ccccc2c(NCc2ccc(Cl)cc2)c1[N+](=O)[O-]`, the AC50 is 1.64 µM [rising, partial curve] under setting [2] and 2.59 µM [rising, partial curve] under setting [1].

As to `Cc1cc(Nc2ccc3ccccc3c2)n2ncnc2n1`, the cell number change is -1.6%. Besides, under setting [1], the AC50 was 0.651 µM [rising, full curve, poor fit].

With `CCOC(=O)CN1CC23C=CC(O2)C(C(=O)NCCc2ccccc2)C3C1=O` (centres undefined), the cell number change worked out at 8.47%. Besides, under setting [2], the AC50 is 0.259 µM [rising, partial curve, poor fit]. Further, the AC50 under setting [1] was 0.291 µM [falling, full curve, poor fit].

On to `CCn1nnnc1-c1ccc(OC)c(S(=O)(=O)Nc2ccc(S(N)(=O)=O)cc2)c1`, for which the cell number change is -2.17%.

For the compound `Cc1nc2ccccn2c1C(=O)CSc1ccccc1`, the cell number change stood at 20.8%. In addition, under setting [2], the AC50 is 6.51 µM [rising, single point]. Moreover, under setting [1], the half-maximal activity concentration (AC50) was 6.51 µM [rising, partial curve, poor fit].

`O=C(NCc1ccc(F)cc1)c1noc2c1CCCCC2`: the cell number change is -16.1%.

Take `CC/C(=C\C(=O)c1ccncc1)Nc1ccc(Br)cc1`: the cell number change was determined as 83.6%. Moreover, the AC50 under setting [2] was 1.3 µM [rising, full curve]. Further, the AC50 under setting [1] was 1.3 µM [rising, full curve].

As for `CC(NC(=O)CCCc1ccccc1)c1ccncc1` (centres undefined), the cell number change was 15.8%.

In the case of `O=C(CN1C(=O)c2ccccc2S1(=O)=O)c1ccc(O)c(O)c1`, the cell number change was -33.6%. Moreover, the AC50 under setting [2] was 6.51 µM [falling, partial curve]. For the same compound, the AC50 under setting [1] was 5.8 µM [falling, full curve].

Turning to `CCCNC(=O)c1ccc(CN2CCc3ccccc3C2)cc1`, the cell number change stood at 18.1%.

In the case of `N#Cc1c(-c2ccccc2)nc(-c2ccccc2)nc1N1CCOCC1`, the cell number change is 90%. In addition, under setting [2], the AC50 was 0.461 µM [rising, full curve]. Besides, the AC50 under setting [1] is 0.731 µM [rising, partial curve].

In the case of `CCCCNC(=O)CSc1nnc(NC(C)=O)s1`, the cell number change is 1.74%. Moreover, the concentration at half-maximal activity (AC50) under setting [1] was 0.00517 µM [falling, full curve, poor fit].

Take `c1ccc(N2CCN(c3nc4ccccc4n4cnnc34)CC2)cc1`: the cell number change was -2.58%. Further, under setting [1], the concentration at half-maximal activity (AC50) was 9.2 µM [rising, partial curve, poor fit].

As for `O=[N+]([O-])c1ccc(Cl)c(S(=O)(=O)Nc2ccc(-c3ccc(N4CCCC4)nn3)cc2)c1`, the cell number change was found to be 6.88%.

Take `Clc1ccc2c(c1)C1=C(C(c3ccncc3)O2)C(c2ccc(Br)cc2)n2ncnc2N1` (centres undefined): the cell number change is -13.6%. Further, the AC50 under setting [2] is 3.66 µM [rising, single point].

Turning to `Cc1c(C(=O)N(C)CCCCN2CCOCC2)oc2c(F)cccc12`, the cell number change is 21.5%. Also, under setting [2], the AC50 is 0.116 µM [rising, full curve, poor fit]. Further, the AC50 under setting [1] was 29.1 µM [rising, single point].

For the compound `Cc1ccc(C(=O)Nc2cccc(C(=O)N3CCOCC3)c2)cc1Cl`, the cell number change was -36.9%. Moreover, under setting [2], the AC50 was 29.1 µM [falling, single point]. Moreover, under setting [1], the AC50 was 20.6 µM [falling, single point].

Turning to `CCOc1ccc(NCc2nnc(SCC(=O)Nc3cc(C)on3)n2-c2ccccc2OC)cc1`, the cell number change was 11.3%. The AC50 under setting [1] was 7.31 µM [rising, partial curve, poor fit].

On to `CCN(CC)C(=O)CSc1nnc(CSc2ncccn2)n1C`, for which the cell number change was -13%.

`COc1ccc(-c2cnn(-c3ccccc3)c2N)cc1OC`: the cell number change was -12.8%. Under setting [1], the AC50 was 20.6 µM [falling, single point].

As for `O=C(O)CCCC(=O)Nc1ccc(N2CCCC2)cc1`, the cell number change is 1.03%. Moreover, the AC50 under setting [1] is 0.00517 µM [falling, full curve, poor fit].

As for `CCN(CC)S(=O)(=O)c1c(Br)cc(C)cc1Br`, the cell number change came to 2.46%.

Consider `CC(C)CC(=O)NC1(C(F)(F)F)C(=O)Nc2c1c(=O)[nH]c(=O)n2Cc1ccco1` (centres undefined), for which the cell number change is -13.2%. Also, the AC50 under setting [2] was 2.06 µM [falling, partial curve].

For `Cc1csc(NC(=O)CSc2nnc(NC(=O)C3CC(=O)N(c4ccccc4)C3)s2)n1` (centres undefined), the cell number change worked out at 8.33%.

Regarding `COc1ccc(/C=C/CN2CCC(Oc3ccc(C(=O)N4CCCCC4)cc3)CC2)cc1`, the cell number change stood at 6.93%. Moreover, the AC50 under setting [1] is 29.1 µM [rising, single point].

In the case of `O=c1c2ccccc2nc(SCc2cn3ccsc3n2)n1-c1ccc(F)cc1`, the concentration at half-maximal activity (AC50) was 1.64 µM [rising, partial curve] under setting [2] and 2.06 µM [rising, partial curve] under setting [1].

As to `O=S(=O)(c1cccs1)N1CN(Cc2cccs2)c2nc3ccccc3nc21`, the AC50 under setting [1] is 0.651 µM [rising, single point].

Consider `Cc1ccc2nc(SCC(=O)Nc3ccc(C)c([N+](=O)[O-])c3)[nH]c2c1`, for which the cell number change was -31.1%. The AC50 under setting [2] is 16.4 µM [falling, single point]. Further, the AC50 under setting [1] is 29.1 µM [falling, single point].

For `Cc1cccc(C(C)C)c1NC(=O)COC(=O)C1CC(=O)N(Cc2ccccc2)C1` (centres undefined), the cell number change amounted to 17.6%.

As to `O=C(c1cc(COc2cccc(C(F)(F)F)c2)on1)N1CCC(c2ccccc2)CC1`, the cell number change is 25.7%.

Consider `O=C(CSc1ccc2nnc(-c3cccnc3)n2n1)NCc1ccco1`, for which the cell number change turned out to be 0.826%.

In the case of `Cc1cc(=O)oc2cc(OCC(=O)OCC(=O)NCCc3ccccc3)ccc12`, the cell number change is -30.6%. Also, the AC50 under setting [2] is 0.082 µM [falling, full curve]. Further, the AC50 under setting [1] is 29.1 µM [falling, single point].

As to `O=C(Nc1ccccc1C(=O)O)c1cc(S(=O)(=O)N2CCCCCC2)ccc1Cl`, the cell number change was -1.25%.

Regarding `CCOc1ccccc1NC(=O)CN1CCC(C(=O)c2ccc(F)cc2)CC1`, the cell number change was found to be 29.1%.

Consider `O=C(CCn1cccc1)Nc1cc(F)ccc1F`, for which the cell number change was -32.3%. The AC50 under setting [2] is 2.91 µM [falling, full curve]. Moreover, the AC50 under setting [1] is 29.1 µM [falling, single point].

Consider `O=C(Cc1nc2ccccc2[nH]1)c1ccc(Br)cc1`, for which the cell number change was 18%. Under setting [2], the concentration at half-maximal activity (AC50) was 4.11 µM [rising, single point]. Moreover, under setting [1], the concentration at half-maximal activity (AC50) was 6.51 µM [rising, single point].

For the compound `O=C(NCCN1CCCCC1)c1cc(Cl)ccc1Cl`, the cell number change was 26%. In addition, the AC50 under setting [1] was 6.51 µM [rising, single point].

Turning to `CC(=O)Nc1ccc(-c2cc(-c3ccccc3)nc(-c3ccccc3)n2)cc1`, the cell number change was -10.5%. For the same compound, the AC50 under setting [1] was 6.51 µM [falling, full curve, poor fit].

Turning to `COc1ccc(C2Nc3ccccc3C(=O)N2NC(C)=O)c(OC)c1` (centres undefined), the cell number change stood at 7.8%. The half-maximal activity concentration (AC50) under setting [1] is 0.116 µM [rising, full curve, poor fit].

Consider `C=CCn1cc([N+](=O)[O-])nc1C`, for which the cell number change was -22.6%. For the same compound, the AC50 under setting [2] was 0.259 µM [falling, partial curve, poor fit]. Further, the AC50 under setting [1] is 1.64 µM [falling, partial curve, poor fit].

For `Cc1ccc(C(=O)NCC(=O)NCCCc2ccccc2)s1`, the cell number change was -2.7%. For the same compound, the AC50 under setting [1] is 18.4 µM [rising, partial curve].

For the compound `O=C(CN(CC1CCCO1)C(=O)Cn1nnc(-c2ccc(F)cc2)n1)NC1CCCCC1` (centres undefined), the cell number change is 39.7%. For the same compound, under setting [2], the AC50 is 9.2 µM [rising, partial curve, poor fit]. For the same compound, the AC50 under setting [1] was 16.4 µM [rising, partial curve, poor fit].

In the case of `COc1ccc(Cl)cc1NC(=O)CCc1ccccc1`, the cell number change was determined as 59.5%. For the same compound, the AC50 under setting [2] was 0.731 µM [rising, partial curve, poor fit]. For the same compound, under setting [1], the AC50 was 0.13 µM [rising, full curve, poor fit].

Consider `O=C(CCC1CCCCC1=O)c1ccccc1` (centres undefined), for which the cell number change came to 9.52%.

For the compound `COC(=O)c1ccc(N=Cc2c(C(F)(F)F)[nH]n(C)c2=O)cc1`, the cell number change was determined as 2.05%. Also, the concentration at half-maximal activity (AC50) under setting [2] was 6.51 µM [rising, single point]. Besides, under setting [1], the AC50 is 6.51 µM [rising, single point].

Regarding `COc1cc2nc3occc3c(OC)c2cc1OC`, the cell number change was found to be 20.6%. In addition, the AC50 under setting [1] is 0.0366 µM [rising, full curve, poor fit].

In the case of `CCn1cc(C(=O)O)c(=O)c2cc(OC)ccc21`, the cell number change stood at 39%. The AC50 under setting [2] was 14.6 µM [rising, single point].

As to `CCOC(=O)c1cccc(NS(=O)(=O)c2c(C(=O)N3CCCCCC3)c(C)n(C)c2C)c1`, the AC50 under setting [1] was 10.3 µM [falling, partial curve].

As for `COc1ccccc1-n1c(C)nc2cc(C(=O)NCCN3CCOCC3)ccc21`, the cell number change was found to be 40.4%. Besides, the concentration at half-maximal activity (AC50) under setting [2] was 20.6 µM [rising, single point]. Further, the half-maximal activity concentration (AC50) under setting [1] was 8.2 µM [rising, partial curve, poor fit].
